Article PMC12320230, “BAY11-7082 Targets RNF25 to Reverse TRIP4 Ubiquitination-dependent NF-κB Activation and Apoptosis Resistance in Renal Cell Carcinoma” (International Journal of Biological Sciences, 2025)
Results are given in words; binding and its absence hold for the method and conditions named. Binding seen in cells or lysates may run through a third protein. A yes stands for co-enrichment or nearness to the bait. Other partners may have been found. For some assays here: Tags and fused reporters may be left off the sequences shown.

Protein sequences, listed by entry. Tags and fused reporters are not part of them.
UniProt Q04206: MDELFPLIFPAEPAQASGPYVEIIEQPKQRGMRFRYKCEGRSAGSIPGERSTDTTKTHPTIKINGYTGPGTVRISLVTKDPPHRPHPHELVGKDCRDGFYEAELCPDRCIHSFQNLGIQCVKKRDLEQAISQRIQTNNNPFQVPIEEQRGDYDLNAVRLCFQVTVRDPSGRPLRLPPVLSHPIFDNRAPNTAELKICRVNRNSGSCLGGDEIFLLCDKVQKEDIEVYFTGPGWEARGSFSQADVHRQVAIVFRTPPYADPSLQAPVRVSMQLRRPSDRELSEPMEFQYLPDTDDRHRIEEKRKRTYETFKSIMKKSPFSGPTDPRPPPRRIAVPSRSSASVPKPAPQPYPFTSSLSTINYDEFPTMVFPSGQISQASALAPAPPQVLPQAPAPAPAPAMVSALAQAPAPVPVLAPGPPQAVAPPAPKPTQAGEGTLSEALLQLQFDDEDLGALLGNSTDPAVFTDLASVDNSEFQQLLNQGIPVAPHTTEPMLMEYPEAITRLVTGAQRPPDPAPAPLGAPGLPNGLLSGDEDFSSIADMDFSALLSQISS

Key:
Flag-tagged RNF25 = biological target: T1, Flag-tagged RNF25 (UniProt Q96BH1); assay: affinity purification with mass spectrometry; 293T cells transfected with Flag-tagged RNF25 or HA-tagged p65, 48 h; lysed in IP buffer; Flag- or HA-conjugated agarose beads; elution with 2% SDS; LC-MS
T1 sequence: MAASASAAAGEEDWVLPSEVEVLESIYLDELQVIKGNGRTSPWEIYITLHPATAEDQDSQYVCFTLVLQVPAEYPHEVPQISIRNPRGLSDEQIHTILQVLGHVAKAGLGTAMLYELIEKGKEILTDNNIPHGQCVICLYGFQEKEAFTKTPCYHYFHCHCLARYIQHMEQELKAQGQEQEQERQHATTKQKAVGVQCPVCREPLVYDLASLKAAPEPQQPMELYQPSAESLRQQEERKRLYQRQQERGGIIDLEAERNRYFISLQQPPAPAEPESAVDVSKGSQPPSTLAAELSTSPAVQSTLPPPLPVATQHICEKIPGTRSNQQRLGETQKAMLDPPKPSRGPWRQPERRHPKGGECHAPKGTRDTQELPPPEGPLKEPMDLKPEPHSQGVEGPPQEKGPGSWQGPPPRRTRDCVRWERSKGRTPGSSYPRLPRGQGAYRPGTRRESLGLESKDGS

HA-tagged p65 = HA-tagged p65 (UniProt Q04206); assay: as above

B1: TRIP4 (protein, UniProt Q15650 1-581)
chain: MAVAGAVSGEPLVHWCTQQLRKTFGLDVSEEIIQYVLSIESAEEIREYVTDLLQGNEGKKGQFIEELITKWQKNDQELISDPLQQCFKKDEILDGQKSGDHLKRGRKKGRNRQEVPAFTEPDTTAEVKTPFDLAKAQENSNSVKKKTKFVNLYTREGQDRLAVLLPGRHPCDCLGQKHKLINNCLICGRIVCEQEGSGPCLFCGTLVCTHEEQDILQRDSNKSQKLLKKLMSGVENSGKVDISTKDLLPHQELRIKSGLEKAIKHKDKLLEFDRTSIRRTQVIDDESDYFASDSNQWLSKLERETLQKREEELRELRHASRLSKKVTIDFAGRKILEEENSLAEYHSRLDETIQAIANGTLNQPLTKLDRSSEEPLGVLVNPNMYQSPPQWVDHTGAASQKKAFRSSGFGLEFNSFQHQLRIQDQEFQEGFDGGWCLSVHQPWASLLVRGIKRVEGRSWYTPHRGRLWIAATAKKPSPQEVSELQATYRLLRGKDVEFPNDYPSGCLLGCVDLIDCLSQKQFKEQFPDISQESDSPFVFICKNPQEMVVKFPIKGNPKIWKLDSKIHQGAKKGLMKQNKAV
With B1 the binding (Flag-tagged RNF25) was “binds” and the binding (HA-tagged p65) was “binds”.
